{"sequences": {"note": "The chains behind the UniProt entries cited, without tags or fusion partners. Residues count along the entry.", "UniProt P06733": "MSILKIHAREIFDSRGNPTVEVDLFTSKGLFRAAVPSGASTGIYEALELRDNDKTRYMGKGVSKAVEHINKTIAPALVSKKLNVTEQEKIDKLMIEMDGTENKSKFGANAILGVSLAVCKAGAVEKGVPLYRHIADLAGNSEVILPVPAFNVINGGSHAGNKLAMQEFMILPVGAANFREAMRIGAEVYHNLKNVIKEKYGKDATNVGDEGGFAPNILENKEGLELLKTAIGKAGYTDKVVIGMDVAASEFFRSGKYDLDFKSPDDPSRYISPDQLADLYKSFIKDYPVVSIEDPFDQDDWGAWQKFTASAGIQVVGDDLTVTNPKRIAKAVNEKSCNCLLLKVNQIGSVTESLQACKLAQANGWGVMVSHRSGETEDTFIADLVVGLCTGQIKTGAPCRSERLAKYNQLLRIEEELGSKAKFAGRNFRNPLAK", "UniProt P07355": "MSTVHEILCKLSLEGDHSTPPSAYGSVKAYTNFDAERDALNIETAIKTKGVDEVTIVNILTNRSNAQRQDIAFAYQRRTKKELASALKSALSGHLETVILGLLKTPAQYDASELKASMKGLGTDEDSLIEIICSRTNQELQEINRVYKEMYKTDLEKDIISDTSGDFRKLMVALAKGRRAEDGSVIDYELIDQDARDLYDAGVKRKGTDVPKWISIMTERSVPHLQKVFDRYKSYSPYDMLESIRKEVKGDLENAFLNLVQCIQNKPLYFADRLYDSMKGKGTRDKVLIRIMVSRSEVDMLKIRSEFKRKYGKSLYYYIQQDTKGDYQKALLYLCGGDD", "UniProt P27824, residues 21-592": "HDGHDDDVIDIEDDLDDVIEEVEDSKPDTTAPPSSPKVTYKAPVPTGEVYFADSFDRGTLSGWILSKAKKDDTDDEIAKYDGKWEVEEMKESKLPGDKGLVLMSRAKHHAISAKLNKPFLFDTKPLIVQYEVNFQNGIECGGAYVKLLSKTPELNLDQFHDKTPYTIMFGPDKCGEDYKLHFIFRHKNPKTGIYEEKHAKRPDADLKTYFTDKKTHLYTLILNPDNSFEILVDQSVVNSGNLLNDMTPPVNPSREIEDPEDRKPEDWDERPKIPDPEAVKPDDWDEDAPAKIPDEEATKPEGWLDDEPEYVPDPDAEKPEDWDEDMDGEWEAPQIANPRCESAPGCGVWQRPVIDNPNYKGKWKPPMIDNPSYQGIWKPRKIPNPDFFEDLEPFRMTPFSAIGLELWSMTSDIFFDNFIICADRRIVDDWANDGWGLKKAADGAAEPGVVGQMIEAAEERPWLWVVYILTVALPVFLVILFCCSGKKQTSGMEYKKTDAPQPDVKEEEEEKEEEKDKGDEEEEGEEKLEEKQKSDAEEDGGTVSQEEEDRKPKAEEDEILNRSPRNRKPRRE"}, "source": "paper PMC5702460", "note": "No constants are given. Whether binding was seen depends on the method and setting. In cells and extracts the contact can be indirect. Here binding means that the protein was enriched with, or labelled near, the bait; the list need not be complete.", "data": [{"molecular_target": "T1, Hazara virus nucleocapsid protein (N) (Hazara virus strain JC280) (UniProt P27318)", "T1 sequence": "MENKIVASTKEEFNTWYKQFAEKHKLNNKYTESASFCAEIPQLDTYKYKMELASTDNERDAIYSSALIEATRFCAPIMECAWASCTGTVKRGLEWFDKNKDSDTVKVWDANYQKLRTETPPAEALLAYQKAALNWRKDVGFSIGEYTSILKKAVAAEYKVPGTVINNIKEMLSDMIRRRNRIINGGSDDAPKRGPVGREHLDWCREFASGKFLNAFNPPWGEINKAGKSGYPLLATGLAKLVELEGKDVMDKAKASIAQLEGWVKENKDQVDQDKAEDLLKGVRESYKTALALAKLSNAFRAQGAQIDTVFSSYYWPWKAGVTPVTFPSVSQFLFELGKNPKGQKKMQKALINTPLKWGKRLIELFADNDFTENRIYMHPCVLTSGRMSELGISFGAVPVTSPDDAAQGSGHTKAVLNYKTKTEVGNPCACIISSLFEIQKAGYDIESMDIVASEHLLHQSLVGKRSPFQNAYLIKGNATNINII", "assay": "affinity purification with mass spectrometry", "values": [{"molecule": "Ryanodine receptor 3 (from UniProt Q15413 1-4870)", "binding": "binds"}, {"molecule": "Alpha-enolase (from UniProt P06733 1-434)", "binding": "binds"}, {"molecule": "Annexin A2 (from UniProt P07355 1-339)", "binding": "binds"}, {"molecule": "Calnexin (from UniProt P27824 21-592)", "binding": "binds"}, {"molecule": "Stress-induced-phosphoprotein 1 (from UniProt P31948 1-543)", "binding": "binds"}, {"molecule": "Fructose-bisphosphate aldolase A (protein, UniProt P04075 1-364) MPYQYPALTPEQKKELSDIAHRIVAPGKGILAADESTGSIAKRLQSIGTENTEENRRFYRQLLLTADDRVNPCIGGVILFHETLYQKADDGRPFPQVIKSKGGVVGIKVDKGVVPLAGTNGETTTQGLDGLSERCAQYKKDGADFAKWRCVLKIGEHTPSALAIMENANVLARYASICQQNGIVPIVEPEILPDGDHDLKRCQYVTEKVLAAVYKALSDHHIYLEGTLLKPNMVTPGHACTQKFSHEEIAMATVTALRRTVPPAVTGITFLSGGQSEEEASINLNAINKCPLLKPWALTFSYGRALQASALKAWGGKKENLKAAQEEYVKRALANSLACQGKYTPSGQAGAAASESLFVSNHAY", "binding": "binds"}, {"molecule": "Peroxiredoxin-1 (protein, UniProt Q06830 1-199) MSSGNAKIGHPAPNFKATAVMPDGQFKDISLSDYKGKYVVFFFYPLDFTFVCPTEIIAFSDRAEEFKKLNCQVIGASVDSHFCHLAWVNTPKKQGGLGPMNIPLVSDPKRTIAQDYGVLKADEGISFRGLFIIDDKGILRQITVNDLPVGRSVDETLRLVQAFQFTDKHGEVCPAGWKPGSDTIKPDVQKSKEYFSKQK", "binding": "binds"}, {"molecule": "LIM and SH3 domain protein 1 (protein, UniProt Q14847 1-261) MNPNCARCGKIVYPTEKVNCLDKFWHKACFHCETCKMTLNMKNYKGYEKKPYCNAHYPKQSFTMVADTPENLRLKQQSELQSQVRYKEEFEKNKGKGFSVVADTPELQRIKKTQDQISNIKYHEEFEKSRMGPSGGEGMEPERRDSQDGSSYRRPLEQQQPHHIPTSAPVYQQPQQQPVAQSYGGYKEPAAPVSIQRSAPGGGGKRYRAVYDYSAADEDEVSFQDGDTIVNVQQIDDGWMYGTVERTGDTGMLPANYVEAI", "binding": "binds"}, {"molecule": "F-box only protein 2 (protein, UniProt Q9UK22 1-296) MDGDGDPESVGQPEEASPEEQPEEASAEEERPEDQQEEEAAAAAAYLDELPEPLLLRVLAALPAAELVQACRLVCLRWKELVDGAPLWLLKCQQEGLVPEGGVEEERDHWQQFYFLSKRRRNLLRNPCGEEDLEGWCDVEHGGDGWRVEELPGDSGVEFTHDESVKKYFASSFEWCRKAQVIDLQAEGYWEELLDTTQPAIVVKDWYSGRSDAGCLYELTVKLLSEHENVLAEFSSGQVAVPQDSDGGGWMEISHTFTDYGPGVRFVRFEHGGQDSVYWKGWFGARVTNSSVWVEP", "binding": "binds"}, {"molecule": "Protein disulfide-isomerase A4 (protein, UniProt P13667 21-645) VAGAEGPDEDSSNRENAIEDEEEEEEEDDDEEEDDLEVKEENGVLVLNDANFDNFVADKDTVLLEFYAPWCGHCKQFAPEYEKIANILKDKDPPIPVAKIDATSASVLASRFDVSGYPTIKILKKGQAVDYEGSRTQEEIVAKVREVSQPDWTPPPEVTLVLTKENFDEVVNDADIILVEFYAPWCGHCKKLAPEYEKAAKELSKRSPPIPLAKVDATAETDLAKRFDVSGYPTLKIFRKGRPYDYNGPREKYGIVDYMIEQSGPPSKEILTLKQVQEFLKDGDDVIIIGVFKGESDPAYQQYQDAANNLREDYKFHHTFSTEIAKFLKVSQGQLVVMQPEKFQSKYEPRSHMMDVQGSTQDSAIKDFVLKYALPLVGHRKVSNDAKRYTRRPLVVVYYSVDFSFDYRAATQFWRSKVLEVAKDFPEYTFAIADEEDYAGEVKDLGLSESGEDVNAAILDESGKKFAMEPEEFDSDTLREFVTAFKKGKLKPVIKSQPVPKNNKGPVKVVVGKTFDSIVMDPKKDVLIEFYAPWCGHCKQLEPVYNSLAKKYKGQKGLVIAKMDATANDVPSDRYKVEGFPTIYFAPSGDKKNPVKFEGGDRDLEHLSKFIEEHATKLSRTKEEL", "binding": "binds"}, {"molecule": "Malate dehydrogenase, cytoplasmic (protein, UniProt P40925 1-334) MSEPIRVLVTGAAGQIAYSLLYSIGNGSVFGKDQPIILVLLDITPMMGVLDGVLMELQDCALPLLKDVIATDKEDVAFKDLDVAILVGSMPRREGMERKDLLKANVKIFKSQGAALDKYAKKSVKVIVVGNPANTNCLTASKSAPSIPKENFSCLTRLDHNRAKAQIALKLGVTANDVKNVIIWGNHSSTQYPDVNHAKVKLQGKEVGVYEALKDDSWLKGEFVTTVQQRGAAVIKARKLSSAMSAAKAICDHVRDIWFGTPEGEFVSMGVISDGNSYGVPDDLLYSFPVVIKNKTWKFVEGLPINDFSREKMDLTAKELTEEKESAFEFLSSA", "binding": "binds"}, {"molecule": "Probable serine carboxypeptidase CPVL (protein, UniProt Q9H3G5 23-476) LFRSLYRSVSMPPKGDSGQPLFLTPYIEAGKIQKGRELSLVGPFPGLNMKSYAGFLTVNKTYNSNLFFWFFPAQIQPEDAPVVLWLQGGPGGSSMFGLFVEHGPYVVTSNMTLRDRDFPWTTTLSMLYIDNPVGTGFSFTDDTHGYAVNEDDVARDLYSALIQFFQIFPEYKNNDFYVTGESYAGKYVPAIAHLIHSLNPVREVKINLNGIAIGDGYSDPESIIGGYAEFLYQIGLLDEKQKKYFQKQCHECIEHIRKQNWFEAFEILDKLLDGDLTSDPSYFQNVTGCSNYYNFLRCTEPEDQLYYVKFLSLPEVRQAIHVGNQTFNDGTIVEKYLREDTVQSVKPWLTEIMNNYKVLIYNGQLDIIVAAALTERSLMGMDWKGSQEYKKAEKKVWKIFKSDSEVAGYIRQAGDFHQVIIRGGGHILPYDQPLRAFDMINRFIYGKGWDPYVG", "binding": "binds"}, {"molecule": "Transaldolase (protein, UniProt P37837 1-337) MSSSPVKRQRMESALDQLKQFTTVVADTGDFHAIDEYKPQDATTNPSLILAAAQMPAYQELVEEAIAYGRKLGGSQEDQIKNAIDKLFVLFGAEILKKIPGRVSTEVDARLSFDKDAMVARARRLIELYKEAGISKDRILIKLSSTWEGIQAGKELEEQHGIHCNMTLLFSFAQAVACAEAGVTLISPFVGRILDWHVANTDKKSYEPLEDPGVKSVTKIYNYYKKFSYKTIVMGASFRNTGEIKALAGCDFLTISPKLLGELLQDNAKLVPVLSAKAAQASDLEKIHLDEKSFRWLHNEDQMAVEKLSDGIRKFAADAVKLERMLTERMFNAENGK", "binding": "binds"}]}]}
